Experimental data from the supplement of paper PMC3334620.
The full ranking holds about 33,000 sequences; the median of “E-score (-0.5 to 0.5)” is about -0.0034, and the highest 2% start at about 0.25. The list shows a part of the results.

biological target: T1, Yap3 (UniProt P38749); assay: PBM E-score (8-mer binding enrichment) (E-score (-0.5 to 0.5)); higher = stronger / more preferred TF binding; conditions: protein concentration: 100 nM; construct: GST-full length
T1 sequence: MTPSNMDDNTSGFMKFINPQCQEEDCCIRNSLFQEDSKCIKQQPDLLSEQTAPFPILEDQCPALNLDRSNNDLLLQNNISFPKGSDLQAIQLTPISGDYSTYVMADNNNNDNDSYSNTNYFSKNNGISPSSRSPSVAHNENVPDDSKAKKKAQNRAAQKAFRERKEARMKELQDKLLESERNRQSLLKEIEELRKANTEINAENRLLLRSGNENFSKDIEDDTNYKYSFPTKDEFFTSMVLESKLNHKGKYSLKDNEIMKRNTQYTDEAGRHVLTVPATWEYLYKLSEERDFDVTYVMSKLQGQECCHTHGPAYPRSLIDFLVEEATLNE
Method in brief: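 GST-tagged yeast TFs (full-length or DNA-binding domain) were made by PURExpress in vitro transcription/translation and applied at about 100-200 nM to universal all-10-mer Agilent arrays. The arrays were made double-stranded by primer extension, on fresh or once-stripped slides. Bound protein was detected with fluorescent anti-GST, and scans were normalised with masliner. Each ungapped eight-base word, pooled with its reverse complement, received an E-score (modified Wilcoxon-Mann-Whitney statistic) from the Universal PBM Analysis Suite.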

Going from AAATCCTT to CAGTAGGA, the “PBM E-score” value falls from -0.0476 to -0.183.

Compared with GAGTCCCA, ATTACGAC is higher in “PBM E-score” value: -0.0964 for the first, 0.269 for the second.

First: AAACTTAA
Second: CCCGTTCC
The “PBM E-score” value of the first is higher: 0.23 for the first, -0.126 for the second.

Going from AGTTAGGG to AGAAGTCT, the “PBM E-score” value falls from 0.0307 to -0.101.

Going from ATGTTAGG to AATCTTCC, the “PBM E-score” value falls from 0.0887 to -0.0614.

First: GAGATTCC
Second: ACACAAGA
The “PBM E-score” value of the first is lower: 0.0624 for the first, 0.1 for the second.

Compared with AGAACACC, CACAAACA is higher in “PBM E-score” value: 0.00243 for the first, 0.0814 for the second.

Going from CTACATTA to ATCTAATG, the “PBM E-score” value falls from 0.11 to 0.0125.

Compared with CCATTAGA, CCGGTCGC is lower in “PBM E-score” value: -0.187 for the first, -0.238 for the second.

Going from CCTGAAAA to ATAGTGAT, the “PBM E-score” value rises from -0.0139 to 0.0481.

Compared with GCCCAGAC, GTGTACGA is higher in “PBM E-score” value: -0.326 for the first, 0.0182 for the second.

Compared with ACAAGCAC, AAAAAGTG is higher in “PBM E-score” value: -0.0521 for the first, 0.128 for the second.

Compared with ATCTTTCA, AGTCTTGC is lower in “PBM E-score” value: 0.207 for the first, -0.0169 for the second.

Going from AGTCCAAC to GGGGTTCA, the “PBM E-score” value rises from -0.148 to -0.103.

Compared with AGATTTGA, GCGCCCTA is lower in “PBM E-score” value: 0.168 for the first, -0.235 for the second.

First: AATAAGTA
Second: ACTAGGAG
The “PBM E-score” value of the first is higher: 0.215 for the first, -0.18 for the second.

Compared with AGAAGCGC, AATTGAAG is lower in “PBM E-score” value: 0.105 for the first, -0.0722 for the second.

First: TAGAAAGA
Second: AATAGGAG
The “PBM E-score” value of the first is higher: 0.0423 for the first, -0.242 for the second.

First: GACGCAGC
Second: AAGTGTAG
The “PBM E-score” value of the first is lower: -0.161 for the first, 0.0222 for the second.

First: CGGTCCGA
Second: ACTCTTAC
The “PBM E-score” value of the first is lower: -0.192 for the first, 0.183 for the second.

Going from CATTTATA to CGACACTA, the “PBM E-score” value falls from 0.215 to 0.129.

Going from AGAACAAC to GCCGTGGA, the “PBM E-score” value falls from 0.0478 to -0.21.

Going from CATACCCA to AGGGGACG, the “PBM E-score” value falls from 0.0979 to -0.124.

Compared with AAGCCCTT, CTGGTTCA is higher in “PBM E-score” value: -0.18 for the first, -0.105 for the second.

First: CGGCCGAA
Second: GAGAGAGC
The “PBM E-score” value of the first is higher: 0.0933 for the first, -0.194 for the second.

First: CGGTGGAG
Second: CTCAAGCC
The “PBM E-score” value of the first is lower: -0.217 for the first, -0.145 for the second.

Going from GACGGACA to GGGATCAA, the “PBM E-score” value falls from 0.0978 to 0.0188.

First: AGCCTTAT
Second: CCTCCCAG
The “PBM E-score” value of the first is higher: 0.0323 for the first, -0.2 for the second.

Going from CACAACGC to AAGTAATT, the “PBM E-score” value rises from 0.0619 to 0.222.

Compared with AGGCCGTG, ATTATTTC is higher in “PBM E-score” value: -0.0817 for the first, 0.302 for the second.

First: AGCATACA
Second: GTTTCGGA
The “PBM E-score” value of the first is higher: 0.112 for the first, -0.011 for the second.

Going from GGTAGCAC to AGTAGCTA, the “PBM E-score” value rises from -0.238 to 0.136.

First: CTATCCAG
Second: GAATGCGA
The “PBM E-score” value of the first is higher: 0.00631 for the first, -0.00713 for the second.

Compared with CACGCGCA, AATAGCTG is higher in “PBM E-score” value: -0.0822 for the first, -0.054 for the second.

Going from CCTCCGCC to GGTGGGAA, the “PBM E-score” value rises from -0.223 to 0.0383.

First: ATTTCAAA
Second: GGGACCCA
The “PBM E-score” value of the first is higher: 0.204 for the first, -0.241 for the second.

Compared with ACCCTCAA, ATATCAGG is higher in “PBM E-score” value: -0.0948 for the first, -0.0437 for the second.

First: AATTTCCG
Second: ATCCTTGA
The “PBM E-score” value of the first is higher: 0.237 for the first, 0.0288 for the second.

Compared with CGAGATGC, TGAAACCA is higher in “PBM E-score” value: -0.0804 for the first, 0.131 for the second.

Going from TACTGTAA to CGCCATGA, the “PBM E-score” value falls from 0.175 to 0.077.

Compared with ATTGTCTC, ACGACTGA is lower in “PBM E-score” value: 0.137 for the first, -0.04 for the second.

Going from CTATAGTA to AGTAGGCG, the “PBM E-score” value falls from 0.156 to -0.0582.

Going from CAACTCGA to AGAATATC, the “PBM E-score” value rises from 0.0838 to 0.165.

Going from ACGAACGA to ACTGCCAA, the “PBM E-score” value rises from 0.0402 to 0.101.

First: AGTTGATC
Second: AGGAGAAT
The “PBM E-score” value of the first is higher: 0.0597 for the first, -0.0293 for the second.

First: GCAACGAA
Second: ATCTAAAC
The “PBM E-score” value of the first is higher: 0.247 for the first, -0.111 for the second.

First: AACCCCTG
Second: TTCGCAAA
The “PBM E-score” value of the first is lower: -0.246 for the first, 0.198 for the second.

First: AAGGTCTC
Second: CGTCATGC
The “PBM E-score” value of the first is lower: -0.0989 for the first, 0.0266 for the second.

Going from ATCAATGG to CCGATAGG, the “PBM E-score” value falls from 0.0648 to -0.0315.

Compared with AACTGAGC, AGACGTGA is higher in “PBM E-score” value: -0.185 for the first, 0.143 for the second.

Compared with GTTTGTGA, AGACATGG is higher in “PBM E-score” value: 0.0699 for the first, 0.0779 for the second.

Going from CATGCGCC to AATTGCAA, the “PBM E-score” value rises from 0.0574 to 0.183.

Compared with CCCAGCGC, ATGACGTC is higher in “PBM E-score” value: -0.145 for the first, 0.221 for the second.

Going from AATTGATG to AGTTCATG, the “PBM E-score” value falls from 0.215 to 0.18.

Compared with CAATCAGC, AACAGGTT is higher in “PBM E-score” value: -0.059 for the first, 0.0368 for the second.

First: ATATTGAT
Second: AATCCCAA
The “PBM E-score” value of the first is higher: 0.205 for the first, 0.0459 for the second.

Compared with ATCAAACA, TATTACGA is higher in “PBM E-score” value: 0.192 for the first, 0.326 for the second.

Compared with CCTCGTTC, ACTGGCAT is lower in “PBM E-score” value: -0.0985 for the first, -0.151 for the second.

Going from CAATTATG to ACGCATAT, the “PBM E-score” value falls from 0.214 to 0.175.

First: CACACCTA
Second: CGGGGCCA
The “PBM E-score” value of the first is higher: -0.0208 for the first, -0.285 for the second.

First: ATTAGACA
Second: ACGGAGAT
The “PBM E-score” value of the first is higher: -0.021 for the first, -0.0531 for the second.

First: AGCCGATG
Second: AAATTAAC
The “PBM E-score” value of the first is lower: -0.0561 for the first, 0.136 for the second.

First: AGGTACTG
Second: GGGACCAC
The “PBM E-score” value of the first is higher: -0.112 for the first, -0.126 for the second.

Compared with TTTCGAAA, ACCGAATC is lower in “PBM E-score” value: 0.071 for the first, -0.00408 for the second.

Going from CTGCCACC to ACAAGCGC, the “PBM E-score” value rises from -0.272 to 0.0537.

Compared with CTGTTCTA, CTCGGAAC is lower in “PBM E-score” value: 0.0132 for the first, -0.116 for the second.

First: ATCGTGTA
Second: ACGCATAG
The “PBM E-score” value of the first is lower: -0.00618 for the first, 0.0069 for the second.

Compared with TGTAGACA, CGGCTCAG is lower in “PBM E-score” value: 0.101 for the first, -0.0325 for the second.

Going from CATGATAA to CAGTCGCA, the “PBM E-score” value falls from 0.255 to -0.256.

Compared with GCATGTCC, ACGCATCT is higher in “PBM E-score” value: -0.162 for the first, 0.106 for the second.

Compared with AGCGCGGC, CGGGTAAA is higher in “PBM E-score” value: 0.0106 for the first, 0.163 for the second.

First: CCCGGGTC
Second: GATCTGAC
The “PBM E-score” value of the first is lower: -0.195 for the first, 0.00948 for the second.

First: CGATTAAA
Second: ATTTGGTA
The “PBM E-score” value of the first is lower: 0.191 for the first, 0.235 for the second.

Compared with CTACTCTA, AAGTGGTA is lower in “PBM E-score” value: 0.148 for the first, 0.0357 for the second.

First: ATTTTTGA
Second: ACCGAGGG
The “PBM E-score” value of the first is higher: 0.15 for the first, -0.332 for the second.

Compared with AGGGCTCG, AAGAAATG is higher in “PBM E-score” value: -0.228 for the first, 0.137 for the second.

Going from CCTCACCA to ATATGCAA, the “PBM E-score” value rises from -0.0697 to 0.073.

First: ATATTATG
Second: GTCGCTAA
The “PBM E-score” value of the first is higher: 0.399 for the first, -0.00825 for the second.

Going from ACTTAATG to CTGGTCCC, the “PBM E-score” value falls from 0.218 to -0.3.

Going from CCAACGAG to AACTATTA, the “PBM E-score” value rises from -0.101 to 0.252.

First: GATTAATC
Second: CTATTGAG
The “PBM E-score” value of the first is higher: 0.117 for the first, 0.112 for the second.

Compared with AGCGTTCC, CATCCTCG is lower in “PBM E-score” value: -0.0165 for the first, -0.0766 for the second.

Compared with CAGCGATA, GATCCAGA is higher in “PBM E-score” value: -0.0172 for the first, 0.0382 for the second.

Compared with AGATAATC, TCCATAAA is higher in “PBM E-score” value: 0.0687 for the first, 0.114 for the second.

Compared with CGATCCTC, CCCTATAA is higher in “PBM E-score” value: -0.153 for the first, -0.138 for the second.

First: ACGTACTC
Second: GTCTCCAC
The “PBM E-score” value of the first is higher: 0.0983 for the first, -0.0603 for the second.
